No constants are given. Whether binding was seen depends on the method and setting. Some results given as binding are weak or reduced against the parent protein; the word gives no strength.

In test [1] the target is DnaJB8 C-terminal domain CTD_(170-232) (human) (UniProt Q8NHS0). The test can be described thus: cross-linking.
The target is the same in test [2]. Nature of the test: SEC-MALS.
For test [3], the target named is FITC-labelled JD_(1-77) (human) (UniProt Q8NHS0). Nature of the test: fluorescence polarisation. In general terms: Fluorescence polarisation rises when a labelled molecule tumbles more slowly, as on binding a larger partner.

B1: DnaJB8 C-terminal domain CTD_(170-232) (domain or fragment, UniProt Q8NHS0 170-232)
chain: GGSSSGSSGFKSVMSSTEMINGHKVTTKRIVENGQERVEVEEDGQLKSVTVNGKEQLKWMDSK
In the case of B1, the binding result in test [1] is “no binding (tested: 100μM)”; in test [2], “no binding (tested: 6.6 mg/mL)”; in test [3], “binds”.
